The record followed here is PubChem BioAssay AID1347423 (Functional Genomics Laboratory (NCATS/FGL), 2020).

About 210 (0.4%) of roughly 52,000 sequences were called active.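 Rule for the calls: active = gene whose silencing raises cell survival under the drug, median off-target-corrected z-score across its silencing RNAs 2 or more; inactive = the rest.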 The list shows a part of the results.

The nature of this experiment: Resistance to Poly (ADP-Ribose) Polymerase inhibitor: Gene Identification via Genome-wide siRNA Screen. The conditions noted are these: mouse BRCA2 R2336H ES cells, olaparib, CellTiter-Glo viability; stronger effect = higher value. In short, it runs like this:
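Genome-wide siRNA screen (3 siRNAs/gene, 20 nM) in mouse ES cells carrying hypomorphic BRCA2 R2336H; olaparib 500 nM added 48 h post-transfection, CellTiter-Glo viability 72 h later. Normalized to plate-median negative control; MAD z-scores, gene median, seed-adjusted.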
As to GGUGAACUGUCAUAACUGGTT against Synj2, the z-score was inactive: -1.62.
The result for GCAUCCUUUGUCGAAGUGGTT against Mrcl reads inactive: -1.21.
The result for “GGACCGACUUCGUCUCACUTT against 4931419P11Rik” reads inactive: 2.98; that for GGAGAUGACUGAUUUGAAGTT against Ccnb3, inactive: 0.835.
The result for UGAUGAUGGGUGUGGUUGUTT against Olfr887 reads inactive: -1.26; that for GCAUCGACAACCUCUCUAGTT against Hba-x, inactive: 2.62; that for GGUAACUUCAGUCUUGUUATT against BC031575, inactive: -0.358.
As for GGAUAAGUACACGCUUCCCTT against Sox2, the z-score is inactive: 0.69.
To GGUCAUCGAUCACAUUGAUTT against Thbs4 belongs inactive: 0.201; to GGUCAAUCAUUUCUAUGUUTT against Pdcd6, inactive: 0.354; to GGUUUUCCGGACCAAAAUUTT against Rasa3, inactive: 1.21.
As to GGGAGUAAAGAAAAUGUUATT against Sca2, the z-score was inactive: 0.383.
To GCAUGAGUUAGACCAUAAUTT against Phf12 belongs inactive: 0.679; to GGAAGUGUUGGCUAUUUUUTT against Kctd10, inactive: 1.35.
For GGAGGAGUGUUGUAUCUGCTT against Rnf141, the z-score was inactive: 0.37.
With GGGCUUUGAGAGCAUCUUATT against Card15, the z-score is inactive: 1.08.
The result for GGUCUCUCGGACUUUUUCCTT against Adipor1 reads inactive: 2.71.
To GGCUGAUGCAGACAGUUUCTT against Brap belongs inactive: -0.807; to GGAUAACCCUGUAAUGAUATT against Dctn4, inactive: -0.983.
The result for GGAGGACAAGGAGGAUGACTT against Samd10 reads inactive: -1.53.
GGACCUUUGUUGUCAGUCATT against Zfp319: the z-score is inactive: -0.856.
Regarding GGUUAUUCAGCUCCUUAAATT against Paxip1, the z-score is inactive: -1.08.
To GGAAUUCACAGAUACCGUGTT against Guca1a belongs inactive: -0.248; to “GGUCGAUUUGUCCUUGUGCTT against 2400009B11Rik”, inactive: -0.772; to GGAGAAUGGCCACGUAAAATT against Marcks, inactive: -0.285.
The result for CCGAGUUCCUUCAACAUGCTT against Hoxb7 reads inactive: -0.447; that for “CGAUCCCUGUCUGUUGGAUTT against 9230105I15Rik”, inactive: 0.387.
The result for UUGAAAAGUUCGGAACUGATT against Gm253 reads inactive: -0.318; that for GGAUGACCAACAUUUUACATT against Ptprf, inactive: 0.406; that for “GCCAAUCUGAACUUGUGUUTT against 1600029D21Rik”, inactive: -0.0458.
Regarding GGGACAUCCGGAAUAUUUGTT against Endogl1, the z-score is inactive: 0.322.
To GGGAAUUUGCUCCUGAAGGTT against Pcdhb8 belongs inactive: 0.373.
The result for GGUCAUUUUGGGAUAUCAGTT against Lman1 reads inactive: 2.5; that for GGCCAGCAAAACAAAUGACTT against Slc34a2, inactive: -0.153; that for GGUUGGAAUGCACACGAAATT against Tmem34, inactive: -0.444.
The result for GGUUUAACUUUAAUGAUGGTT against Cacna1e reads inactive: -0.729.
As to “GGAAAGUGUCACCAAGUUCTT against B230359F08Rik”, the z-score was inactive: -0.0496.
To GCAGGUGGUUAUCAACUGUTT against Vasp belongs inactive: 0.301.
To “GGUCACCACUCCAUAUUCUTT against 4632428N05Rik” belongs inactive: 0.514; to “GGGACACGAUGAGGAGUCATT against 1810043G02Rik”, inactive: -0.202.
To “GCAGGUGAAAUAAAGAAGGTT against 4930550B20Rik” belongs inactive: -0.129.
Take “CCACCAUGUAUCUUUGAGUTT against 1700123O20Rik”: the z-score is inactive: 0.978.
Take CGGAACAAAUGUCUUGGGCTT against Kcnrg: the z-score was inactive: -0.207.
To GGACUAAAAAAAGUAGUGUTT against Abca5 belongs inactive: -0.0767; to GGAGGGUGUCAUUUUGCCATT against Slc8a3, inactive: -1.15.
To “CCACUUAUAUUUGAUCUCATT against 4921524P20Rik” belongs inactive: -2.26; to GCCUGAAUUCCACUACUCGTT against Def8, inactive: -0.111.
As for CCGUAAUUGAUUCUUUACUTT against Kif3a, the z-score was active: 2.25.
To GGUGUGAGCUAUGUGUACATT against V1rd2 belongs inactive: -1.42; to GGAUCAUUAGAUAAGUCAATT against Xpo4, inactive: 0.886; to CCCUUCGAUAACCAGAUCCTT against Utf1, inactive: 0.94.
To GGUCGAUUGAAGUGGAAAATT against Sh3kbp1 belongs inactive: 1.08.
Turning to GGAGCAGUUUGAACGAAUCTT against Aldh1b1, the z-score was inactive: 0.189.
To CCCAUGUCGUGACAUCACATT against Slc26a7 belongs inactive: -0.518; to GCUGUGAUAGUCAAAAAACTT against Gm1960, inactive: 1.16; to “GAUUCUCCAUUGCCCAAUGTT against 2310069N01Rik”, inactive: -0.037.
For GGGUAUAAGAAAACUGGCATT against Rad18, the z-score was inactive: 0.00125.
Turning to “GGACAGAGUCUUCAAAACGTT against 2310010B21Rik”, the z-score is inactive: 0.00643.
The result for CCCUACUGUUAUUCAAACCTT against Rhoj reads inactive: 0.319; that for GCACAUUGUCUAGUAGUAATT against Suhw4, inactive: -0.345; that for GGGAAGAAACAAAGCUUUUTT against Olfr267, inactive: -0.344.
Turning to “GCCGGAUCCUAAAGAGUCATT against 2810433K01Rik”, the z-score is inactive: -1.12.
To GCUAUGCAGAGGAGUAUGCTT against BC019755 belongs inactive: 0.546.
The result for GGCUUGCUGAUUAAAGAUGTT against Strbp reads inactive: -0.517; that for GGUUUUUGGAUUCAAAGCATT against Pten, inactive: 0.192.
The result for “GGACACCAUAUGGUUAGCUTT against 4930427A07Rik” reads inactive: -3.36.
